Measured values: patent US20220243360A1 (ROCHE SEQUENCING SOLUTIONS, published 2022)
No constants are given. Whether binding was seen depends on the method and setting. Some binding calls cover weakened binding; strength is not graded here.

By UniProt entry, the sequences of proteins in these tests, tags left out. Residues count along the entry.
UniProt P0AEG4, residues 20-208: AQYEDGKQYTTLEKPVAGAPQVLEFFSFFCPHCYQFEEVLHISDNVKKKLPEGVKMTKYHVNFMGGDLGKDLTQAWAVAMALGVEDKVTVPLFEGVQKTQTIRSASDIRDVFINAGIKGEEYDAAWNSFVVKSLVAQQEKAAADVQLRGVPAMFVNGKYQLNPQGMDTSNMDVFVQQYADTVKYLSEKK

Target: biotin-labeled DsbA (UniProt P0AEG4)
Assay: summary of microarray and Biacore data

| Binder | binding |
| --- | --- |
| HNWAAQCLNPDQAKL (C-terminal amide) | binds |
| VILGQCLKQ (C-terminal amide) | binds |
| SIIGMCYKKDPS (C-terminal amide) | binds |
| YVYGMCWKDYTTDK (C-terminal amide) | binds |
| VIVGQCLKK (C-terminal amide) | binds |
| DFWHGETCKVTQFDQ (C-terminal amide) | binds |
| WQYENWAITKWQCVK (C-terminal amide) | binds |
| HNWAAQCLKDQAKL (C-terminal amide) | binds |
| NDYQYKGQQCLDPKY (C-terminal amide) | binds |
| YVYGMCWKDYTDTDK (C-terminal amide) | binds |
| VIGQCLKN (C-terminal amide) [VIGQCLKN-NH2] | binds |
| DFWHGEQCKVTQFDQ (C-terminal amide) | binds |
